Data reported in patent US20070128661A1 (Harvard, published 2007).
At least one result comes from cells or an extract, where the contact may be indirect. A negative result means that nothing was seen under these conditions. Tags and fusion partners may be left off the protein sequences shown.

Molecular target: T1, T-bet (UniProt Q9JKD8)
T1 sequence (limits assumed): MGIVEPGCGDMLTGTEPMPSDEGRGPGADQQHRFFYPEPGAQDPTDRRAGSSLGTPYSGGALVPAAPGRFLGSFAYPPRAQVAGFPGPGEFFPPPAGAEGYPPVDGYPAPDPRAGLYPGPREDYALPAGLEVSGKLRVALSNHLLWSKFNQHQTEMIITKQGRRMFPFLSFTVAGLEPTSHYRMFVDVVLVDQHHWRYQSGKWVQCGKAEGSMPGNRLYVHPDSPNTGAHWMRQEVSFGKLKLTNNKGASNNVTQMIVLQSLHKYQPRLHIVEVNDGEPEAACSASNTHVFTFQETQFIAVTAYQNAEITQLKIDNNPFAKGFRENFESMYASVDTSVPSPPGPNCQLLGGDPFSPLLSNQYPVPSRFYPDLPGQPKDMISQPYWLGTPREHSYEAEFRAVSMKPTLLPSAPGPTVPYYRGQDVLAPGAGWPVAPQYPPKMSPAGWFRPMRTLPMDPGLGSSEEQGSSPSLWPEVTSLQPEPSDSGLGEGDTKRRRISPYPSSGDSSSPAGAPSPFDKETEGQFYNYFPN
Assay: pull-down
Settings: protein in a lysate after overexpression, label: 5' biotin

Row | Sequence | binding result (HKMG buffer: 10 mM Hepes pH 7.9, 100 mM KCl, 5 mM MgCl2) | binding result (T-box mutated, HKMG buffer, variant of IL-2 promoter wt T-box site)
1 | ATTAAAACTGCCACCTAAGTGTGGGCTAACCCG (double strand) [IL-2 promoter wt T-box site] | binds | –
2 | ATTAAAACTGCTCTCTAACTAAGGGCTAACCCG (double strand) [IL-2 promoter mt T-box site] | – | no binding
